Screen size: about 310,000 compounds; about 17,000 (5.5%) were called active. Inconclusive results, whose numbers are uncertain, are shown with a selection of clear calls. Calls come from the whole dose curve; as a rule, active = well fitted inhibition curve with a large enough effect; inconclusive = small, poorly fitted or top-dose-only effect, or effect the other way; inactive = no such curve, though single readings can be large or run the other way. Potencies of inconclusive entries are doubtful fits and often do not repeat.
target: Nuclear receptor ROR-gamma (Mus musculus) (UniProt P51450); assay: qHTS for inhibitors of ROR gamma transcriptional activity; settings: Drosophila S2 Gal4-RORgamma UAS-luciferase reporter, 20 h; activity change, negative = inhibition: at 53.6 µM (top of the series); note: nearly all actives have a fitted effect of over 60% in size
Outline: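 Drosophila Schneider cells stably carrying a metallothionein-driven Gal4 DBD–ROR gamma fusion and a UAS-Photinus luciferase reporter were exposed to compound for 1 hr, then induced with copper sulfate (700 uM final) for 20 hr at ambient temperature before luminescence reading.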
% is set by controls: 0 for no effect and ±100 for the full control effect; potency is the fitted concentration of half-maximal effect.

Amino acid sequences for entries named in this document (tags omitted). A change or cut given only in a name is not applied to a line headed by its entry.
UniProt P51450: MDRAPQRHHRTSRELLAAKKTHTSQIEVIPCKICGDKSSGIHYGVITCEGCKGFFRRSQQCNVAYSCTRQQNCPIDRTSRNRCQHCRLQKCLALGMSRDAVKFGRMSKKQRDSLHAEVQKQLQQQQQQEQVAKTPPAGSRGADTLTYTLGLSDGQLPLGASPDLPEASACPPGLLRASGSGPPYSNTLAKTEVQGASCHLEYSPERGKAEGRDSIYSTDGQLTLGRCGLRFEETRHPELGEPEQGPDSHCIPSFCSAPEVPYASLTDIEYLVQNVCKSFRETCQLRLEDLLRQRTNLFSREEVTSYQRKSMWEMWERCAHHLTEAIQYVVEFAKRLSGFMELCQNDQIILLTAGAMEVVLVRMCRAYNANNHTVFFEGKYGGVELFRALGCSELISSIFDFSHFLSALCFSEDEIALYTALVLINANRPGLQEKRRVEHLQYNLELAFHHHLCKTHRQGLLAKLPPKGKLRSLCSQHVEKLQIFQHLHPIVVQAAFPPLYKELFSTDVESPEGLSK

Row | Structure (SMILES) | Potency | activity change, negative = inhibition
1 | CCCC(=O)c1ccc(N2CCCCCC2)c(F)c1 | inconclusive: 2.82 µM [activator, full curve, poor fit] | –
2 | COc1ccc(/C=C/C(=O)c2ccc(O)cc2)cc1 | active: 2.51 µM | –
3 | O=C1c2ccccc2NC(c2ccc3c(c2)OCO3)N1O (stereo not drawn) | inconclusive: 17.8 µM [inhibitor, single point] | –
4 | Cc1cc(NC(=O)NC(=O)c2cccc(OC(F)(F)C(F)F)c2)n[nH]1 | inconclusive: 2 µM [activator, full curve] | –
5 | CCN1C(=O)/C(=C/c2ccc(C)o2)N(C)C1=S | inconclusive: 35.5 µM [inhibitor, single point] | –
6 | COc1ccc(S(=O)(=O)N2CCOCC2)cc1NC(=O)CSc1nnc2c(n1)[nH]c1ccccc12 | inconclusive: 10 µM [activator, partial curve] | –
7 | CC(=O)OC1CC2C(C)(C)CCC(=O)[C@@]2(C)C2CC[C@@]3(C)C(c4ccoc4)OC(=O)C4OC43[C@]12C (stereo partly drawn) | – | inactive: 7.4%
8 | Cc1cc(N2CCCC2)ccc1NC(=O)COc1cccc(C(F)(F)F)c1 | active: 11.2 µM | –
9 | CCc1ccc(-c2csc(NC(=O)c3cccnc3)n2)cc1 | inconclusive: 4.47 µM [activator, partial curve, poor fit] | –
10 | COc1c(C)cccc1C(=O)Nc1ccc(N2CCN(C(=O)c3ccccc3C)CC2)cc1 | inconclusive: 25.1 µM [activator, single point] | –
11 | COC(=O)CN1C(=O)[C@H]2[C@@H](C3CC3)N3C(=O)CN(Cc4ccc(-c5ccccc5)cc4)C(=O)[C@@]3(Cc3ccccc3)[C@H]2C1=O | – | inactive: 16.4%
12 | O=C(Nc1ccn(Cc2ccccc2)n1)c1cccc(Cn2cc([N+](=O)[O-])cn2)c1 | inconclusive: 28.2 µM [activator, single point] | –
13 | C/C(=N\NC(=O)c1cc(Br)ccc1O)c1ccccn1 | active: 0.398 µM | –
14 | CCCn1nnnc1NC(=O)CSc1ccc(Cl)cc1 | active: 0.891 µM | –
15 | CC(=O)Nc1cc(C(F)(F)F)ccc1Oc1cccc(Br)c1 | inconclusive: 6.31 µM [activator, partial curve] | –
16 | CCOc1ccc(CC(=O)Nc2ccc(S(=O)(=O)N3CCCC3)cc2)cc1 | – | inactive: 9.49%
17 | COc1cc(CNCCc2ccccc2F)ccc1OCc1ccc(Cl)nc1 | – | inactive: -16.8%
18 | O=C(/C=C/c1ccccc1)NC(=S)Nc1ccc(N2CCOCC2)c(Cl)c1 | active: 2.51 µM | –
19 | Cc1ncoc1C(=O)Nc1ccc2c(c1)OCCO2 | inconclusive: 15.8 µM [inhibitor, single point] | –
20 | S=C(NCc1ccc(Cl)cc1)NN1CCOCC1 | active: 10 µM | –
21 | COC(=O)c1ccc(COc2cc(O)c3c(c2)OC(C)(C)CC3=O)cc1 | inconclusive: 2.24 µM [activator, full curve] | –
22 | O=C(Oc1ccc(C(=S)N2CCOCC2)cc1)c1ccc(Br)cc1 | – | inactive: 24.9%
23 | CC(C)(C)OC(=O)N1CCC(c2c(C(=O)NCC3CCN(C4CCCC4)C3)cnn2-c2cccc(Cl)c2)CC1 (stereo not drawn) | – | inactive: -8.07%
24 | CN(C)S(=O)(=O)c1cccc(C(=O)Nc2cc(Cl)ccc2O)c1 | inconclusive: 14.1 µM [activator, partial curve] | –
25 | COc1ccccc1NC(=O)CSC1CC(=O)N(c2ccc3c(c2)OCO3)C1=O (stereo not drawn) | active: 5.62 µM | –

Row | Structure (SMILES) | Potency | activity change, negative = inhibition
26 | N#Cc1ccccc1OCC(=O)N1CCc2ccccc2C1 | inconclusive: 0.794 µM [inhibitor, full curve, poor fit] | –
27 | Cc1ccc(NCC(=O)Nc2ccc(Br)cc2)cc1F | inconclusive: 14.1 µM [activator, partial curve] | –
28 | Cc1cccc(OCc2n[nH]c(=S)n2C2CCCCC2)c1 | active: 0.794 µM | –
29 | CNC(=O)c1ccsc1NC(=O)c1ccc(S(=O)(=O)N2CCOCC2)cc1 | – | inactive: 34.6%
30 | C=C(C)c1cccc(C(C)(C)NC(=O)NCc2ccncc2)c1 | inconclusive: 35.5 µM [inhibitor, single point] | –
31 | Cc1ccn2c(C(=O)N/N=C/c3ccc(CNC(=O)C(=O)Nc4ccc(C)c(C)c4)o3)c(C)nc2c1 | inconclusive: 8.91 µM [activator, partial curve, poor fit] | –
32 | CCc1ccc(-c2cc(C(=O)O)c3ccccc3n2)s1 | inconclusive: 5.01 µM [inhibitor, partial curve] | –
33 | CNC(=S)N1N=C(c2ccc(C)cc2)CC1c1ccc(Cl)cc1 (stereo not drawn) | active: 12.6 µM | –
34 | COCCNc1ncnc2ccc(-c3ccccc3C)cc12 | inconclusive: 17.8 µM [activator, single point] | –
35 | O=C(CCCOc1ccccc1)N1CCc2ccccc2C1 | inconclusive: 2.82 µM [activator, full curve, poor fit] | –
36 | COc1ccc(NC(=O)CN2C(=O)CSc3ccc(S(=O)(=O)N4CCCC4)cc32)cc1OC | inconclusive: 5.62 µM [activator, single point] | –
37 | CCN(CCCNC(=O)c1ccc(N2CCCC2=O)cc1)c1cccc(C)c1 | – | inactive: 27.1%
38 | CCC(Oc1ccccc1)C(=O)Nc1nc2c(s1)C(=O)CC(C)(C)C2 (stereo not drawn) | – | inactive: 22.7%
39 | Cc1cccc(-c2nc3c(c(SCC(N)=O)n2)CCCC3)c1 | inconclusive: 25.1 µM [activator, partial curve] | –
40 | COCCNC(=S)N/N=C(\C)c1ccc(O)cc1 | active: 22.4 µM | –
41 | CCOC(=O)C1=C(c2ccccc2)NC(=O)NC1c1cc(OCC)c(O)c([N+](=O)[O-])c1 (stereo not drawn) | – | inactive: 35%
42 | Cc1ccc2nc(-c3ccc(NC(=O)c4cccnc4)cc3)oc2c1 | active: 20 µM | –
43 | COc1ccc(Cl)cc1NC(=O)CSC1=NN2CCCC(=O)N=C2S1 | inconclusive: 12.6 µM [activator, partial curve] | –
44 | O=C(Nc1cccc(C(F)(F)F)c1)Nc1ccc(N2CCCC2)c(S(=O)(=O)Nc2ccccc2Cl)c1 | inconclusive: 35.5 µM [inhibitor, single point] | –
45 | COC(=O)c1c(NC(=S)NN2CCOCC2)sc2c1CCCC2 | active: 1.26 µM | –
46 | CC(C)CC(=O)NNC(=S)NCc1ccco1 | inconclusive: 31.6 µM [inhibitor, single point] | –
47 | CN1CCN(c2cc3c(c4c2[nH]c2ccccc24)C(=O)CC(C)(C)C3)CC1 | inconclusive: 17.8 µM [inhibitor, single point] | –
48 | CC(=O)c1cnc2c(-c3cccc(Br)c3)cnn2c1C | inconclusive: 35.5 µM [activator, single point] | –
49 | CCCCn1c(SCC(=O)N2c3ccccc3Sc3ccccc32)nc2c1c(=O)n(C)c(=O)n2C | inconclusive: 25.1 µM [activator, single point] | –
50 | Cc1ccc(-c2csc(NC(=O)c3cnccn3)n2)cc1C | active: 2.24 µM | –

5 records picked at random from those above, as already listed:
Row | Structure (SMILES) | Potency | activity change, negative = inhibition
35 | O=C(CCCOc1ccccc1)N1CCc2ccccc2C1 | inconclusive: 2.82 µM [activator, full curve, poor fit] | –
36 | COc1ccc(NC(=O)CN2C(=O)CSc3ccc(S(=O)(=O)N4CCCC4)cc32)cc1OC | inconclusive: 5.62 µM [activator, single point] | –
30 | C=C(C)c1cccc(C(C)(C)NC(=O)NCc2ccncc2)c1 | inconclusive: 35.5 µM [inhibitor, single point] | –
43 | COc1ccc(Cl)cc1NC(=O)CSC1=NN2CCCC(=O)N=C2S1 | inconclusive: 12.6 µM [activator, partial curve] | –
41 | CCOC(=O)C1=C(c2ccccc2)NC(=O)NC1c1cc(OCC)c(O)c([N+](=O)[O-])c1 (stereo not drawn) | – | inactive: 35%

Later entries

Row | Structure (SMILES) | Potency | activity change, negative = inhibition
51 | CCN1C(=O)N[C@@H](c2ccccc2)C1=O | – | inactive: 6.48% [at 2.98 µM]
52 | C/C(=C/C=N/Nc1nc(N2CCCCC2)nc(N2CCCCC2)n1)c1ccccc1 | – | inactive: -28.8%
53 | Cc1nc2sc(C(c3cccs3)N3CCOCC3)c(O)n2n1 (stereo not drawn) | inconclusive: 15.8 µM [inhibitor, single point] | –
54 | CCOC(=O)N/N=C1/C[C@@H](O)[C@@H](O)[C@@H]2[C@@H]3C(=O)N(CC)C(=O)[C@H]3CC[C@@H]12 | – | inactive: 3.11% [at 10 µM]
55 | C=CCN=C1NN=C(c2cc(C)n(CCOC)c2C)CS1 | active: 1 µM | –
56 | Cc1nn(CCCC(=O)NCCc2ccccc2)c(C)c1[N+](=O)[O-] | inconclusive: 12.6 µM [inhibitor, single point] | –
57 | c1ccc(C[n+]2csc3ccccc32)cc1 | inconclusive: 35.5 µM [inhibitor, single point] | –
58 | COc1cc(/C=C2\SC(=O)N(CCNC(=O)c3cnc(C)cn3)C2=O)cc(OC)c1OC | inconclusive: 8.91 µM [activator, partial curve] | –
59 | COc1ccc(C(=O)Nc2ccc(N3CCCC3)cc2)cc1OC | inconclusive: 3.16 µM [activator, full curve, poor fit] | –
60 | Cc1ccc(NC(=O)C2CC(=O)N(c3ccc4c5c(cccc35)CC4)C2)cc1 (stereo not drawn) | – | inactive: 37.8%
61 | O=C(Cc1cccc2ccccc12)NC(=S)Nc1cccc(C(=O)O)c1 | inconclusive: 35.5 µM [activator, single point] | –
62 | CCOc1ccc(C(c2nnnn2C(C)(C)C)N2CCN(C(=O)c3ccco3)CC2)cc1 (stereo not drawn) | – | inactive: -0.856%
63 | CC1=C/C(=N\NC(=S)NCc2ccccc2)CC1 | active: 0.562 µM | –
64 | COc1ccccc1C(=O)OC(C)CN1CCN(C)CC1 (stereo not drawn) | inconclusive: 7.08 µM [inhibitor, partial curve] | –
65 | CC(C)(C)OC(=O)CN1c2cccc3cccc(c23)S1(=O)=O | – | inactive: -5.88%
66 | COc1cc(/C=N/Nc2cccc3cccnc23)cc(OC)c1O | active: 10 µM | –
67 | O=S(=O)(NCCCc1ccccc1)c1ccc(Cl)cc1 | – | inactive: 12.3%
68 | COc1c[nH]n(C2CCCCC2)c(=O)c1=O | active: 20 µM | –
69 | CCOC(=O)C1=C(C)NC2=C(C(=O)C(C(=O)OCC)C(c3cccc(OC)c3)C2)C1c1ccccn1 (stereo not drawn) | inconclusive: 7.94 µM [inhibitor, full curve, poor fit] | –
70 | CCOc1cc(C2CC(=O)NC3=C2C(=O)C(C(=O)OC)C(C)C3)cc(Br)c1O (stereo not drawn) | inconclusive: 15.8 µM [activator, partial curve] | –
71 | Cc1ccc(NC(=O)CSc2nc3ccccc3c(=O)n2CCCC(=O)NCCCN2CCOCC2)cc1 | inconclusive: 35.5 µM [inhibitor, single point] | –
72 | N#CC1=C(N)N(c2ccc(F)cc2)C(=O)C1 | inconclusive: 12.6 µM [inhibitor, partial curve, poor fit] | –
73 | COC(=O)C1(O)CC(C(C)C)=NN1C(=O)c1ccc(Cl)cc1 (stereo not drawn) | active: 10 µM | –

— PubChem BioAssay AID2551 (National Center for Advancing Translational Sciences (NCATS), 2010)
